From paper PMC3923668
These are yes or no findings as the source states them, for the method shown. Binding seen in cells or lysates may run through a third protein. Some entries that bind do so weakly or less than the wild type.

Chains of the proteins cited; added tags and fusions are not shown.
UniProt P20263: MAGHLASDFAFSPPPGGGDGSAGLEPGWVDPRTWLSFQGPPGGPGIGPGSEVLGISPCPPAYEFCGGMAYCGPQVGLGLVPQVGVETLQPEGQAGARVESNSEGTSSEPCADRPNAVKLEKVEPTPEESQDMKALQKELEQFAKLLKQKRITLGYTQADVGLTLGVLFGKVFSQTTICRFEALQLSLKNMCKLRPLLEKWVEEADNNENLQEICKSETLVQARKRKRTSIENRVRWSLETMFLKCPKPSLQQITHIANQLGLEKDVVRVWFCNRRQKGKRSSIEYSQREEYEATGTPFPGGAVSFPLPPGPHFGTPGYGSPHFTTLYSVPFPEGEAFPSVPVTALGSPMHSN

Molecular target: Oct4 (mouse (endogenous in mES cells)) (UniProt P20263)
Assay: co-IP; lysate of wild type mouse ES cells; immunoprecipitated with anti-ZNF322A or anti-Oct4 antibody, Western blot with anti-Oct4 or anti-ZNF322a antibody; control IP with anti-IgG antibody

- binding: binds
B1: Mouse zinc finger protein 322a (Zfp322a) (protein, UniProt Q8BZ89 1-410)
chain: MENHLGENHRRCTLQKRNVTRELKKGKHTMYALKRVKKIYIRVHEITQIDNQTYQCLEREQNFCENLARMCERTYTEEKPYRCDMCEKTFIQSSDLISHQRIHNYEKPYKCSKCEKSFWHHLALSGHQRTHAGKKFYTCDICGKNFGQSSDLLVHQRSHTGEKPYLCNECDKCFSRSTNLIRHRRTHTGEKPFKCLECEKAFSGKSDLISHQRTHTGERPYKCNKCEKSYRHRSAFIVHKRVHTGEKPYKCGACEKCFGQKSDLIVHQRVHTGEKPYKCLECMRSFTRSANLIRHQATHTHTFKCLEYEKSFNCSSDFIVHQRIHMEEKPHQWSMCESDFLLGMDFVAQQKMRAQTEELHYKYSVCDKTFHHSSALLQHQTVHIDDEYICNMSEKGLDLSSHASETSRVS
